Laboratory results: patent US20080318268A1, “Devices and Methods for the Selection of Agents with Efficacy Against Biofilm” (priority 2005, published 2008)

Assays:
[1] = system: Staphylococcus aureus (Staph) biofilm; assay: MBEC assay, Staph biofilms (Example 5); type: cell-based; details: number of resistant isolates; 12 isolates from device associated infections; exposed 24 hours
[2] = system: Staphylococcus aureus biofilm; assay: Staphylococcus test plate, biofilm forms (Example 9); type: cell-based; details: breakpoint concentrations; number in the label is the concentration tested

SMILES: CCC[C@@H]1C[C@@H](C(=O)N[C@@H]([C@H]2O[C@H](SC)[C@H](O)[C@@H](O)[C@H]2O)[C@H](C)Cl)N(C)C1 [CLIN, clindamycin]
- Staph resistance to individual antibiotics and antibiotic combinations, Biofilm [1]: 12
- Number of Staphylococcus aureus isolates resistant to individual antibiotics and antibiotic combinations, Biofilm [2]: 12
